We go through 2 substances from article PMC5386585.

By UniProt entry, the sequences of proteins in these tests, tags left out. Where a name states a change or a piece, a line headed by the entry shows the natural chain unless it says otherwise. Chains listed by the source or under a name are the forms on record and can include a tag or linker.
UniProt O75626: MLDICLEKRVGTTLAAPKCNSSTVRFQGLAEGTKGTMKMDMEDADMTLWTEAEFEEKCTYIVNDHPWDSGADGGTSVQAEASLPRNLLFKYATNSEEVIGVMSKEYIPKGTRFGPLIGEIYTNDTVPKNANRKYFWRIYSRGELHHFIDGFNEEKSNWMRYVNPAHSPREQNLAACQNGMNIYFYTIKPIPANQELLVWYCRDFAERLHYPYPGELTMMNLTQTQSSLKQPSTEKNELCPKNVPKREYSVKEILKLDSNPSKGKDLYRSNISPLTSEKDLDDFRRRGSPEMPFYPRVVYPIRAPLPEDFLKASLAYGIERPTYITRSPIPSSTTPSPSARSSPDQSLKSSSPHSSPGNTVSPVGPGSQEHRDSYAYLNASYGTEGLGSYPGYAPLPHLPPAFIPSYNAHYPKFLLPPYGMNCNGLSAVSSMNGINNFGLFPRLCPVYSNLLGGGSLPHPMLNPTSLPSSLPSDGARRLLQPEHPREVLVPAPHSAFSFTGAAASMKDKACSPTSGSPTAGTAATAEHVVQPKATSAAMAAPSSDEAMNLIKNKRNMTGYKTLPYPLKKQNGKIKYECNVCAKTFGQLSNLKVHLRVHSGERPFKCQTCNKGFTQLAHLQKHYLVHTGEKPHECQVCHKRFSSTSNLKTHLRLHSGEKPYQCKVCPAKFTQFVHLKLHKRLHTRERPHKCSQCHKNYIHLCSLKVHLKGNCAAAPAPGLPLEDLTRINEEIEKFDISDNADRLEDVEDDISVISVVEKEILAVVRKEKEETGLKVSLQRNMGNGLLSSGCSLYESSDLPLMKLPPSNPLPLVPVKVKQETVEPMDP
retinoic acid-related orphan receptor gamma t (RORγt), 3Flag-tagged (P51449, form named): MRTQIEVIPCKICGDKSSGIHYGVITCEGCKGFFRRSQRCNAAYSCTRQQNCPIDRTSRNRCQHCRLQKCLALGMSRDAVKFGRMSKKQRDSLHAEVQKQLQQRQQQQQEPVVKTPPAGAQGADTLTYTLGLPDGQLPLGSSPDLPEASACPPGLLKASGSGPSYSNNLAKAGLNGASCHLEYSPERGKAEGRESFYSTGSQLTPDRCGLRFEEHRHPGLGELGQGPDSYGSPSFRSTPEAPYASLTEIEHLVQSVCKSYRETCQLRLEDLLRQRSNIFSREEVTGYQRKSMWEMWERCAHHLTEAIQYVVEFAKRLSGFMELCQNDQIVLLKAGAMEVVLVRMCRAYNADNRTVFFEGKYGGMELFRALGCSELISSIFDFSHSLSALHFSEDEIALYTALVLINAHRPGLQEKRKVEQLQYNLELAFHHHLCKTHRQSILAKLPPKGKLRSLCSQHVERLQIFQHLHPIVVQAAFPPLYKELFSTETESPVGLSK
UniProt O75444: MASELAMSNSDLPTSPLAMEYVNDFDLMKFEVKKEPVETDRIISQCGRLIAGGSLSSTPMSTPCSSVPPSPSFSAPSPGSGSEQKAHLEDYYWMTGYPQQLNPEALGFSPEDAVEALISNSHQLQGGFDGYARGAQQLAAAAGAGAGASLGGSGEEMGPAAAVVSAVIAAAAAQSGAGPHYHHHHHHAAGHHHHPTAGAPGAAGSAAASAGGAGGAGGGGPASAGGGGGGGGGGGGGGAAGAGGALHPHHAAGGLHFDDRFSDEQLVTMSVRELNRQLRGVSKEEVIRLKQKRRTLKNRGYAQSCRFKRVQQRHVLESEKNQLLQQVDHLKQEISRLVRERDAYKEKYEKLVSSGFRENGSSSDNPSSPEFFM

Experiment [1] concerns the target B lymphocyte-induced maturation protein-1 (Blimp-1), Myc-tagged (UniProt O75626). Put plainly: co-IP; HEK-293T cells (2 x 10^6 cells/well) transfected with RORγ-Flag (5 μg) and or Blimp-1-Myc (5 μg) plasmids; immunoprecipitation and immunoblotting for c-Maf, Blimp-1 and RORγ; which protein was precipitated is not told. (In western blotting, separated proteins are transferred to a membrane and probed.)

In experiment [2] the target is retinoic acid-related orphan receptor gamma t (RORγt), 3Flag-tagged (UniProt P51449). The description is as above.

No constants are given. Whether binding was seen depends on the method and setting. In cells and extracts the contact can be indirect. Some entries that bind do so weakly or less than the wild type.

As to “c-musculoaponeurotic fibrosarcoma (c-Maf) (from UniProt O75444 1-373)”, the binding entry in experiment [1] and in experiment [2] was “binds” throughout. For “B lymphocyte-induced maturation protein-1 (Blimp-1), Myc-tagged (from UniProt O75626 1-825)”, the binding entry in experiment [2] is recorded as “binds”.
